The name of at least one read-out is uncertain.
Assay: In vivo pharmacokinetics and tolerability, single IP dose
Conditions: mice, 30 mg kg^−1 IP
Method: The physiochemical properties of various compounds were evaluated. […] In vivo pharmacokinetic (PK) properties of 13 was evaluated.
To test this, permeability assessments were performed using MDCK cells.

## C=C1CN(C(=N)N)C[C@@H]2Nc3c(F)cc(Br)cc3[C@]12CCNS(=O)(=O)c1ccc(Cl)cc1 [Guan-ATI 13, (4aS,9aR)-6-bromo-4a-(2-((4-chlorophenyl)sulfonamido)ethyl)-8-fluoro-4-methylene-1,3,4,4a,9,9a-hexahydro-2H-pyrido[3,4-b]indole-2-carboximidamide]
  time at which Cmax was reached: 30 min
